{"source": "patent US5196330", "tested_on": "PmeI restriction endonuclease (Pseudomonas mendocina NEB 698 (ATCC 55181))", "assay": "enzyme reaction in vitro", "details": "blunt cleavage between 4th and 5th bases; 37 C, 30 min; Mg2+ present in extension reaction; purified native protein", "note": "The exact form of at least one protein or probe is not confirmed."}
{"sequence": "GTTTAAAC (double strand)", "values": [{"measurement": "activity on this sequence", "result": "active"}]}
